Laboratory results taken from US20070026079A1, “Intranasal administration of modulators of hypothalamic ATP-sensitive potassium channels” (priority 2005, published 2007).

What was measured:
[1] = tested on: central KATP channels; experiment: ICV infusion of diazoxide with pancreatic-insulin clamp (1 mU/kg.min) in conscious rats; assay type: in vivo, Sprague-Dawley rats
Text: (§1) Animal preparation for the in vivo experiments. Rats. Eighty-nine 10-week-old male Sprague-Dawley rats (Charles River Breeding Laboratories, Wilmington, Mass.) were studied. Rats were housed in individual cages and subjected to a standard light-dark cycle. Three weeks prior to the in vivo studies, chronic catheters were implanted in the third cerebral ventricle (Obici et al., 2003; Liu et al., 1998) or intrahypothalamically (Morton et al., 2003) (IH) by stereotaxic surgery. One week before the pancreatic-insulin clamp protocols, rats received additional catheters in the right internal jugular and left carotid artery (FIG. 5) (Obici et al., 2003; Liu et al., 1998).
In vivo studies. For the studies in rats, the metabolic experiments were performed ˜3 weeks after stereotaxic surgery following complete recovery from the operation (FIG. 5). All solutions were diluted with artificial cerebral spinal fluid (aCSF). […] Pancreatic-insulin clamp studies were performed as previously described (Liu et al., 1998). Euglycemic-hyperinsulinemic clamps in conscious, unrestrained, catheterized mice were performed for 90 min as previously described (Obici et al., 2003; Liu et al., 1998).
(§2) Hepatic alucose fluxes. Rate of hepatic glucose fluxes was determined as described. Barzilai et al., 1997).

[2] = tested on: hypothalamic KATP channels; experiment: ICV infusion of insulin, KATP channel blocker (glibenclamide) or both with pancreatic-insulin clamp (1 mU/kg.min) in rats; assay type: in vivo, Sprague-Dawley rats; settings: for FFA / Insulin: plasma; for Body wt.: measured at the beginning of the clamp; for 3H-Glucose Plasma SA / 3H-UDP-glucose Liver SA / Direct (%) / 14C-PEP / 14C-UDP glucose: Table 7; for Direct (%): direct pathway; for 14C-PEP / 14C-UDP glucose: liver
Text: as §1, with “surgery.” for “surgery. One week before the pancreatic-insulin clamp protocols, rats received additional catheters in the right internal jugular and left carotid artery (FIG. 5) (Obici et al., 2003; Liu et al., 1998).”
In vivo studies. For the studies in rats, the metabolic experiments were performed ˜3 weeks after stereotaxic surgery following complete recovery from the operation (FIG. 5). All solutions were diluted with artificial cerebral spinal fluid (aCSF). […] Euglycemic-hyperinsulinemic clamps in conscious, unrestrained, catheterized mice were performed for 90 min as previously described (Obici et al., 2003; Liu et al., 1998).
as §2

| Molecule | FFA ([1]; Basal, before the clamp, plasma) [mM] | Body wt. ([1]; Basal, measured at the beginning of the clamp) [g] | FFA ([1]; Clamp steady state, plasma) [mM] | Insulin ([1]; Clamp steady state, plasma) [ng/mL] | 3H-Glucose Plasma SA ([1]; Table 6) [dpm/nmol] | 3H-UDPglucose Liver SA ([1]; Table 6) [dpm/nmol] | Direct (%) ([1]; direct pathway, Table 6) | 14C-PEP ([1]; liver, Table 6) [dpm/nmol] | 14C-UDP glucose ([1]; liver, Table 6) [dpm/nmol] | FFA ([2]; Basal, before the clamp) [mM] | Body wt. ([2]; Basal) [g] | FFA ([2]; Clamp steady state) [mM] | Insulin ([2]; Clamp steady state) [ng/mL] | 3H-Glucose Plasma SA [2] [dpm/nmol] | 3H-UDP-glucose Liver SA [2] [dpm/nmol] | Direct (%) [2] [%] | 14C-PEP [2] [dpm/nmol] | 14C-UDP glucose [2] [dpm/nmol] |
| --- | --- | --- | --- | --- | --- | --- | --- | --- | --- | --- | --- | --- | --- | --- | --- | --- | --- | --- |
| CC1=NS(=O)(=O)c2cc(Cl)ccc2N1 [diazoxide] | 0.4 ± 0.1 | 306 ± 4 | 0.5 ± 0.1 | 1.2 ± 0.4 | 46.0 ± 14.2 | 6.79 ± 1.6 | 14.37 ± 2.2 | 11.60 ± 2.4 | 3.85 ± 0.3 | – | – | – | – | – | – | – | – | – |
| COc1ccc(Cl)cc1C(=O)NCCc1ccc(S(=O)(=O)NC(=O)NC2CCCCC2)cc1 [glibenclamide, 5-Chloro-N-[2-[4-(3-cyclohexylureidosulfonyl)phenyl]ethyl]-2-methoxybenzamide, reference compound] | – | – | – | – | – | – | – | – | – | 0.4 ± 0.1 | 316 ± 8 | 0.6 ± 0.2 | 1.2 ± 0.5 | 48.8 ± 3.9 | 8.7 ± 0.6 | 18.5 ± 2.8 | 8.8 ± 2.4 | 5.3 ± 1.0 |
| insulin | – | – | – | – | – | – | – | – | – | 0.5 ± 0.3 | 300 ± 5 | 0.4 ± 0.1 | 1.3 ± 0.2 | 43.1 ± 1.9 | 5.5 ± 0.5 | 12.1 ± 0.7 | 10.9 ± 0.6 | 2.2 ± 0.1 |
